This note sets out measurements from article PMC6474811.

Protein sequences, listed by entry. Tags and fused reporters are not part of them.
UniProt Q9UKA9: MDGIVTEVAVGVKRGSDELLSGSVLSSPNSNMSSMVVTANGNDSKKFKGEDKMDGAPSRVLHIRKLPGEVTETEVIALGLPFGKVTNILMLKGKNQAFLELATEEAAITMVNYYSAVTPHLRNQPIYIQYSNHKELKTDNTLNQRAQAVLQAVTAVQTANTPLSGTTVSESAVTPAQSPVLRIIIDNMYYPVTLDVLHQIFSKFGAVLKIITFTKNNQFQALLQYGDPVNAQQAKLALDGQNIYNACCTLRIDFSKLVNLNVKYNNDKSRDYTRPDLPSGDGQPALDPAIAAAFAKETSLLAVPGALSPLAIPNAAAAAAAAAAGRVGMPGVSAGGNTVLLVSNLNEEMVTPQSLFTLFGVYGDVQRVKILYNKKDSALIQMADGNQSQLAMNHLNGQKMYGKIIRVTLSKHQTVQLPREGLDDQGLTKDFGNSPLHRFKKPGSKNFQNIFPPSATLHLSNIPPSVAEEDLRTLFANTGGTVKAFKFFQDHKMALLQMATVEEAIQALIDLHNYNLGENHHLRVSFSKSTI

No constants are given. Whether binding was seen depends on the method and setting. In cells and extracts the contact can be indirect. Some entries that bind do so weakly or less than the wild type.

The assay has as its target T1, NOVA1 (human) (UniProt P51513).
T1 sequence: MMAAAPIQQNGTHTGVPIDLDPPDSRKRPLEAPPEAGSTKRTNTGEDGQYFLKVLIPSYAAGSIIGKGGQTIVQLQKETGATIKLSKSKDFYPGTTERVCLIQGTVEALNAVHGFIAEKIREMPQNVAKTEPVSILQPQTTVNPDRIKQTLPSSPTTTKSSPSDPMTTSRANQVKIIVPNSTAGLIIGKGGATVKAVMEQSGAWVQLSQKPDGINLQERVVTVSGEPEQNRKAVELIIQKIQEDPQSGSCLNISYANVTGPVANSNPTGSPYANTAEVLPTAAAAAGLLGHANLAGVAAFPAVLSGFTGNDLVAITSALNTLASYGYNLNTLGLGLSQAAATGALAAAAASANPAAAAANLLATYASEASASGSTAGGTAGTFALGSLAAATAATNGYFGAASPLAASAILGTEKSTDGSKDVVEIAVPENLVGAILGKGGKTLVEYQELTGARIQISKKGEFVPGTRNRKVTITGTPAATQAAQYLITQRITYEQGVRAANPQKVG
Kind of assay: co-IP; Co-IP 'in humans' (human cells); bait, cell line and conditions are not told in the text shown (Supplementary Figure 2).

For PTBP2 (from UniProt Q9UKA9 1-531), the binding entry is “binds”.
